According to the supplement of paper PMC4604168 (melanoma cell lines):
The other results are listed elsewhere or left out. Many values rest on one well or one pass, so single values are uncertain.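 The apoptosis fraction was the count of cleaved-PARP antibody-stained nuclei relative to all DNA-stained nuclei, imaged in 1,536-well plates. Screening doses were set so most cells survived, and baseline and induced cleaved-PARP levels vary greatly across cell lines.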

test system: LOXIMVI; assay: cleaved PARP positive nuclei fraction relative to DMSO control; melanoma cells; higher = more apoptosis; settings: library dose: low library concentration; 72 h

In order of falling “cleaved PARP positive nuclei fraction” value:
1. Cc1cc(SCc2sc(-c3ccc(C(F)(F)F)c(F)c3)nc2C)ccc1OCC(=O)O + O=C(Oc1ccc([N+](=O)[O-])cc1)N1CCC(C(O)(c2ccc3c(c2)OCO3)c2ccc3c(c2)OCO3)CC1 [JZL184] (first compound 2 µM, partner dose 1 µM)  158%
2. Cn1cncc1[C@@](N)(c1ccc(Cl)cc1)c1ccc2c(c1)c(-c1cccc(Cl)c1)cc(=O)n2C [tipifarnib] + Cc1cc(SCc2sc(-c3ccc(C(F)(F)F)c(F)c3)nc2C)ccc1OCC(=O)O [GW0742] (first compound 0.01 µM, partner dose 2 µM)  105%
3. CC(C)(C)c1cnc(CSc2cnc(NC(=O)C3CCNCC3)s2)o1 + C/C(O)=C(\C#N)C(=O)Nc1cc(Br)ccc1Br [LFM-A13] (first compound 0.01 µM, partner dose 2 µM)  78.9%
4. COc1cc(Nc2ncc(F)c(Nc3ccc4c(n3)NC(=O)C(C)(C)O4)n2)cc(OC)c1OC [Tamatinib] + O=C(Oc1ccc([N+](=O)[O-])cc1)N1CCC(C(O)(c2ccc3c(c2)OCO3)c2ccc3c(c2)OCO3)CC1 [JZL184] (first compound 0.4 µM, partner dose 1 µM)  78.9%
5. O=C(O)C(=O)Nc1sc2c(c1C(=O)O)CCNC2 + O=C(Oc1ccc([N+](=O)[O-])cc1)N1CCC(C(O)(c2ccc3c(c2)OCO3)c2ccc3c(c2)OCO3)CC1 [JZL184] (first compound 1.66667 µM, partner dose 1 µM)  63.3%
6. CC(C)(C)c1cnc(CSc2cnc(NC(=O)C3CCNCC3)s2)o1 + Cc1cc(SCc2sc(-c3ccc(C(F)(F)F)c(F)c3)nc2C)ccc1OCC(=O)O [GW0742] (first compound 0.01 µM, partner dose 2 µM)  56.2%
7. NCC(=O)Nc1ccc(-n2nc(C(F)(F)F)cc2-c2ccc3c(ccc4ccccc43)c2)cc1 + O=C(Oc1ccc([N+](=O)[O-])cc1)N1CCC(C(O)(c2ccc3c(c2)OCO3)c2ccc3c(c2)OCO3)CC1 [JZL184] (first compound 1 µM, partner dose 1 µM)  54.8%
8. C#Cc1cccc(Nc2ncnc3cc(OCCOC)c(OCCOC)cc23)c1 [erlotinib] + O=C(Oc1ccc([N+](=O)[O-])cc1)N1CCC(C(O)(c2ccc3c(c2)OCO3)c2ccc3c(c2)OCO3)CC1 [JZL184] (first compound 0.8 µM, partner dose 1 µM)  45.4%
9. NCC(=O)Nc1ccc(-n2nc(C(F)(F)F)cc2-c2ccc3c(ccc4ccccc43)c2)cc1 + C/C(O)=C(\C#N)C(=O)Nc1cc(Br)ccc1Br [LFM-A13] (first compound 1 µM, partner dose 2 µM)  40.9%
